Measurements reported in PubChem BioAssay AID1224826 (NIAID, 2016)

- Screen: 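Knock-downs that raise or lower Tnf reporter signal after endotoxin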 (primary screen)
- Cell system: RAW264.7 G9 macrophages from mouse bearing reporters for p65 (GFP) and the Tnf promoter (mCherry)
- Reagent: siRNA pool against mouse genes, 100 nM
- Timing: 16 h of LPS stimulation, after 2 days of siRNA transfection
- Conditions: bacterial lipopolysaccharide (Salmonella minnesota R595), 10 ng/ml
- Measured: 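Imaged Tnf reporter mCherry in nuclei, minus background, normalised per plate to the median and expressed as robust z-scores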
- Reading the numbers: Tnf reporter robust z-score: higher = stronger Tnf promoter reporter signal after LPS
- Rule for the call: 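Called active when robust z-score is at most -1.3, matching the median of the Tlr4 knock-down control, or over 3; control wells and wells with under 50 cells never active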
- Calls: active = Tnf reporter clearly lowered or raised; inactive = no clear change in Tnf reporter
Here is an unselected part of about 17,000 reagents tested. Over the whole deposit, about 1,110 (6.6%) got an active call. 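Active means lowered or raised reporter signal; replicate intensities are raw and not normalised per plate.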 Reagents against one gene are numbered here. Not all columns of the deposit are shown.

| gene symbol | pool no. | Tnf reporter robust z-score | fewer than 50 cells in well | Call |
| --- | --- | --- | --- | --- |
| Dnajc30 (DnaJ heat shock protein family (Hsp40) member C30) | 1 | 1.6 | enough cells in well | inactive |
| Lrrc9 (leucine rich repeat containing 9) | 1 | 2.27 | enough cells in well | inactive |
| Incenp (inner centromere protein) | 1 | – | fewer than 50 cells per well; well left out of calls | inactive |
| Mical2 | 1 | -1.06 | enough cells in well | inactive |
| Gzma (granzyme A) | 1 | -0.42 | enough cells in well | inactive |
| Inpp5j (inositol polyphosphate 5-phosphatase J) | 1 | 0.08 | enough cells in well | inactive |
| Rnft2 (ring finger protein, transmembrane 2) | 1 | 0.67 | enough cells in well | inactive |
| Rasal1 (RAS protein activator like 1 (GAP1 like)) | 1 | 0.4 | enough cells in well | inactive |
| Ctbs (chitobiase) | 1 | 0.29 | enough cells in well | inactive |
| Rfx6 (regulatory factor X, 6) | 1 | 0.4 | enough cells in well | inactive |
| Or2b6 (olfactory receptor family 2 subfamily B member 6) | 1 | 0.19 | enough cells in well | inactive |
| Six2 (sine oculis-related homeobox 2) | 1 | -1.15 | enough cells in well | inactive |
| Mrps30 (mitochondrial ribosomal protein S30) | 1 | -0.03 | enough cells in well | inactive |
| H3c11 (H3 clustered histone 11) | 1 | – | fewer than 50 cells per well; well left out of calls | inactive |
| Hes7 (hes family bHLH transcription factor 7) | 1 | -1.11 | enough cells in well | inactive |
| Tapbp (TAP binding protein) | 1 | -0.99 | enough cells in well | inactive |
| Fhip1a (FHF complex subunit HOOK interacting protein 1A) | 1 | 0.24 | enough cells in well | inactive |
| Nexn (nexilin) | 1 | -0.44 | enough cells in well | inactive |
| Mrpl38 (mitochondrial ribosomal protein L38) | 1 | 0.33 | enough cells in well | inactive |
| Ahsp (alpha hemoglobin stabilizing protein) | 1 | 2.11 | enough cells in well | inactive |
| Or5d18 (olfactory receptor family 5 subfamily D member 18) | 1 | – | fewer than 50 cells per well; well left out of calls | inactive |
| Lrrc61 (leucine rich repeat containing 61) | 1 | -0.35 | enough cells in well | inactive |
| Hnf1a (HNF1 homeobox A) | 1 | -0.25 | enough cells in well | inactive |
| Clstn2 (calsyntenin 2) | 1 | 2.05 | enough cells in well | inactive |
| Lbx2 (ladybird homeobox 2) | 1 | -0.01 | enough cells in well | inactive |
| Tbc1d2 (TBC1 domain family, member 2) | 1 | -0.6 | enough cells in well | inactive |
| Tnfrsf14 | 1 | 0.56 | enough cells in well | inactive |
| Pex5l (peroxisomal biogenesis factor 5-like) | 1 | -1.04 | enough cells in well | inactive |
| Jakmip1 (janus kinase and microtubule interacting protein 1) | 1 | -0.58 | enough cells in well | inactive |
| Uck2 (uridine-cytidine kinase 2) | 1 | 1.07 | enough cells in well | inactive |
| Creb1 (cAMP responsive element binding protein 1) | 1 | -0.33 | enough cells in well | inactive |
| Creb1 (cAMP responsive element binding protein 1) | 2 | -0.23 | enough cells in well | inactive |
| Prkar2a (protein kinase, cAMP dependent regulatory, type II alpha) | 1 | 1.42 | enough cells in well | inactive |
| Ldhal6b (lactate dehydrogenase A-like 6B) | 1 | -0.56 | enough cells in well | inactive |
| Gdpd1 (glycerophosphodiester phosphodiesterase domain containing 1) | 1 | 0.44 | enough cells in well | inactive |
| Fxyd4 (FXYD domain-containing ion transport regulator 4) | 1 | -1.12 | enough cells in well | inactive |
| Retnla (resistin like alpha) | 1 | 0.4 | enough cells in well | inactive |
| Zbtb7a (zinc finger and BTB domain containing 7a) | 1 | 0.07 | enough cells in well | inactive |
| Rogdi (rogdi homolog) | 1 | -0.13 | enough cells in well | inactive |
| Tnni3k (TNNI3 interacting kinase) | 1 | 1.26 | enough cells in well | inactive |
| Ctu1 (cytosolic thiouridylase subunit 1) | 1 | -1.39 | enough cells in well | active |
| Klrb1b (killer cell lectin-like receptor subfamily B member 1B) | 1 | -0.85 | enough cells in well | inactive |
| Klrb1b (killer cell lectin-like receptor subfamily B member 1B) | 2 | -1.03 | enough cells in well | inactive |
| 4931431C16Rik (RIKEN cDNA 4931431C16 gene) | 1 | – | fewer than 50 cells per well; well left out of calls | inactive |
| Tmem59l (transmembrane protein 59-like) | 1 | – | fewer than 50 cells per well; well left out of calls | inactive |
| Aspm (abnormal spindle microtubule assembly) | 1 | 1.87 | enough cells in well | inactive |
| Zfp775 (zinc finger protein 775) | 1 | -0.11 | enough cells in well | inactive |
| Gimap6 (GTPase, IMAP family member 6) | 1 | -0.5 | enough cells in well | inactive |
| Fkrp (fukutin related protein) | 1 | 0.15 | enough cells in well | inactive |
| Crot (carnitine O-octanoyltransferase) | 1 | -0.37 | enough cells in well | inactive |
| Or10p22 (olfactory receptor family 10 subfamily P member 22) | 1 | 0.31 | enough cells in well | inactive |
| Crym (crystallin, mu) | 1 | 0.3 | enough cells in well | inactive |
| Srl (sarcalumenin) | 1 | -1.13 | enough cells in well | inactive |
| Nasp (nuclear autoantigenic sperm protein (histone-binding)) | 1 | -0.98 | enough cells in well | inactive |
| Slc66a2 | 1 | – | fewer than 50 cells per well; well left out of calls | inactive |
| Brca1 (breast cancer 1, early onset) | 1 | – | fewer than 50 cells per well; well left out of calls | inactive |
| Dlat (dihydrolipoamide S-acetyltransferase) | 1 | -0.66 | enough cells in well | inactive |
| Ccne2 (cyclin E2) | 1 | 1.34 | enough cells in well | inactive |

Single entries from the list:
Entry of Nexn (nexilin) under “Call”: inactive
Clstn2 (calsyntenin 2), Call → inactive
For “Call”, Ctu1 (cytosolic thiouridylase subunit 1) has active
Under “Call”, Or2b6 (olfactory receptor family 2 subfamily B member 6) shows inactive
Under “fewer than 50 cells in well”, Tapbp (TAP binding protein) shows enough cells in well
